Measured values: PubChem BioAssay AID651768 (National Center for Advancing Translational Sciences (NCATS), 2012)
About 1,700 (0.47%) of roughly 360,000 compounds were called active. Inconclusive results, whose numbers are uncertain, are shown with a selection of clear calls. The call rests on the fitted dose curve; in most records, active means well fitted inhibition curve with a large enough effect; inconclusive means small, poorly fitted or top-dose-only effect; inactive means no such curve, though single readings can be large or run the other way. Where the call is inconclusive, the potency comes from a doubtful curve fit.

Sequences of proteins named here, by UniProt entry; tags and fusion partners are left off.
UniProt Q14191, whole entry, looked up: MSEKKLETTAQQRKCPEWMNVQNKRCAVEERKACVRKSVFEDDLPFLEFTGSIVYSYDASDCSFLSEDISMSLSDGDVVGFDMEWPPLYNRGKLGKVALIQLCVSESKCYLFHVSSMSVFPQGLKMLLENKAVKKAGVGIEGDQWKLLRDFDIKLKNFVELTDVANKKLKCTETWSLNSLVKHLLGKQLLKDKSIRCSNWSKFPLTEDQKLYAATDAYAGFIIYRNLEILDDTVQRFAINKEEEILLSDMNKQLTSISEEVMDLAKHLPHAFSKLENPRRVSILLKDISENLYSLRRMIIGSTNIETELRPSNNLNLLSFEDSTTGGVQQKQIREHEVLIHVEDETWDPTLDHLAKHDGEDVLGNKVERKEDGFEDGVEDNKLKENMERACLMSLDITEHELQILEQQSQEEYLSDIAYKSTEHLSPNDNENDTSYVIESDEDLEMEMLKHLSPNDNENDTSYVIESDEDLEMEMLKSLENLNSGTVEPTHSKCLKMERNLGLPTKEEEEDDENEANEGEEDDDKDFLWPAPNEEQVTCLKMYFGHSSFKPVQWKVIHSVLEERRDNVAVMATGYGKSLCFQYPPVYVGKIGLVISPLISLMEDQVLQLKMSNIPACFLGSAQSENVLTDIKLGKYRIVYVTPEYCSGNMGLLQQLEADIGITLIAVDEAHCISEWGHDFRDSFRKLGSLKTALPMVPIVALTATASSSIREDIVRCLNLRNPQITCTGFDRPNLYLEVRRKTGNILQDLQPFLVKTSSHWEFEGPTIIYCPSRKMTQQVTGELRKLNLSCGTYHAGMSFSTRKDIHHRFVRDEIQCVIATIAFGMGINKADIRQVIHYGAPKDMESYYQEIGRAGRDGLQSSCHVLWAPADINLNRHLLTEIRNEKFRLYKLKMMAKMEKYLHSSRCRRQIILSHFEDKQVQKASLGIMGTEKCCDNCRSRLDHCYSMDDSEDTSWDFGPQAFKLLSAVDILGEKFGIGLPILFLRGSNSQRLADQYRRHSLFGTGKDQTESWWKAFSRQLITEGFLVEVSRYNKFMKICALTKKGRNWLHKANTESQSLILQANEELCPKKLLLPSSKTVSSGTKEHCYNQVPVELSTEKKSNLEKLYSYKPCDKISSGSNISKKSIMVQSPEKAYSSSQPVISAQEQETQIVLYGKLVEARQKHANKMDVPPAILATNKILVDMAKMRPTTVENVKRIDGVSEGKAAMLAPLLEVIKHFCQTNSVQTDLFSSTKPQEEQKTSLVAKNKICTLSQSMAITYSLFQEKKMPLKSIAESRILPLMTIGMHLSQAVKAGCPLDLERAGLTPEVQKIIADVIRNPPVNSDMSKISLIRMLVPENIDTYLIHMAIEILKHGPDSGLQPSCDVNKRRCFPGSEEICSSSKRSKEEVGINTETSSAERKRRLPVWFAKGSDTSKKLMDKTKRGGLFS

These molecules were tested against Bifunctional 3'-5' exonuclease/ATP-dependent helicase WRN (Homo sapiens) (UniProt Q14191) (assay: qHTS for Inhibitors of WRN Helicase). Settings: WRN helicase unwinding, fluorescent forked duplex, kinetic; activity change, negative = inhibition: at 114 µM (top of the series) unless noted.
Outline: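 Kinetic red-fluorescence monitoring (525/598 nm) tracks WRN helicase activity after 100 nM fluorophore-quencher forked duplex and 2 mM ATP are added to 20 nM enzyme pretreated 15 min at room temperature with compound.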
Further: nearly all actives have a fitted effect of over 55% in size.
On the % scale 0 is the no-effect control and ±100 the full control effect; potency means the concentration at half of the fitted maximal effect.

Question: How did the “activity change, negative = inhibition” value turn out when `CC(=O)Nc1ccc(NC(=O)CC2(CC(=O)N3CCOCC3)CCCC2)cc1` was run?
Answer: inactive: -4.05%

Question: `O=C(N/N=C/c1cc(Cl)cc([N+](=O)[O-])c1O)NC12CC3CC(CC(C3)C1)C2` was tested. Which Potency did it give?
Answer: active: 44.7 µM

Question: For `O=C(CSc1ccsc1[N+](=O)[O-])N1CCN(c2ccc(Cl)cc2)CC1`, which activity change, negative = inhibition is on record?
Answer: inactive: -9.39% [at 11.6 µM]

Question: With `Cc1onc(-c2ccccc2)c1C(=O)Nc1nnc(COc2ccc(Cl)cc2)s1` as the molecule, how does the Potency read?
Answer: active: 56.2 µM

Question: With `CSC1SCC2C(=O)N(C)C(C(C)C)C(=O)OCC(NC(=O)c3cnc4ccccc4n3)C(=O)NC(C)C(=O)N(C)C1C(=O)N(C)C(C(C)C)C(=O)OCC(NC(=O)c1cnc3ccccc3n1)C(=O)NC(C)C(=O)N2C` (stereo unspecified) as the molecule, how does the Potency read?
Answer: active: 0.532 µM

Question: How did the Potency turn out when `O=C(N/N=C/c1cccnc1)c1cc(O)c(O)c(O)c1` was run?
Answer: inconclusive: 63.1 µM [inhibitor, partial curve]

Question: With `COC1C=COC2(C)Oc3c(C)c(O)c4c(O)c(c(CN5CCN(C)CC5)c(O)c4c3C2=O)NC(=O)C(C)=CC=CC(C)C(O)C(C)C(O)C(C)C(OC(C)=O)C1C` (stereo unspecified) as the molecule, how does the Potency read?
Answer: inconclusive: 20 µM [inhibitor, single point]

Question: For `COc1ccccc1C(=O)COC(=O)c1cnc(C)cn1`, which “activity change, negative = inhibition” value is on record?
Answer: inactive: -28.7%

Question: For `O=C(N/N=C/c1ccco1)c1cccc(S(=O)(=O)Nc2ccccc2Cl)c1`, which Potency is on record?
Answer: inconclusive: 28.2 µM [inhibitor, single point]

Question: For `CCc1ccc(NC(=O)c2cccc(C(=O)Nc3ccc(CC)cc3)n2)cc1`, which Potency is on record?
Answer: inconclusive: 89.1 µM [inhibitor, single point]

Question: `CCCc1cc(=O)oc2cc(C)c(CN3CCCC3)c(O)c12` was tested. Which Potency did it give?
Answer: active: 39.8 µM

Question: `COc1ccc2[nH]c(=O)c(-c3noc(-c4ccccc4)n3)cc2c1` was tested. Which Potency did it give?
Answer: inconclusive: 16.8 µM [inhibitor, partial curve]

Question: `CC1(C)OC2C(CO)OC(n3cnc4c(=S)nc(N)[nH]c43)C2O1` (stereo unspecified) was tested. Which “activity change, negative = inhibition” value did it give?
Answer: inactive: -4.21%

Question: For `O=c1[nH]c2c(s1)C=Nc1ccccc1N2`, which “activity change, negative = inhibition” value is on record?
Answer: inactive: -27.1% [at 57.1 µM]

Question: `CC(=O)c1cccc(NC(=O)CSc2ccc(-c3sc(C)nc3C)nn2)c1` was tested. Which “activity change, negative = inhibition” value did it give?
Answer: inactive: -9.38%

Question: Which “activity change, negative = inhibition” value does the source give for `C=CSc1sc(Cl)c(N(C)C)c1[N+](=O)[O-]` here?
Answer: inactive: -0.549%

Question: For `COc1ccccc1NC(=O)Cn1cncc1-c1ccc([N+](=O)[O-])cc1`, which “activity change, negative = inhibition” value is on record?
Answer: inactive: -3.66%

Question: How did the Potency turn out when `CC(=O)Nc1ccc(Oc2cc(NC(C)=O)cc([N+](=O)[O-])c2)cc1` was run?
Answer: inconclusive: 89.1 µM [inhibitor, single point]

Question: How did the Potency turn out when `Cc1cc(/C=N/Nc2ccc([N+](=O)[O-])cn2)c(C)n1-c1ccc(C(=O)O)cc1` was run?
Answer: active: 50.1 µM

Question: For `Cc1oc(=O)c(NC(=O)c2ccc(Cl)cc2)cc1C(=O)c1ccccc1`, which Potency is on record?
Answer: inconclusive: 39.8 µM [inhibitor, partial curve]

Question: For `N=C(N)c1ccc(Cl)cc1`, which Potency is on record?
Answer: inconclusive: 31.6 µM [inhibitor, single point]

Question: Which “activity change, negative = inhibition” value does the source give for `COc1ccc2c(c1)OC(=O)CC2c1ccccc1OC` (stereo unspecified) here?
Answer: inactive: -1.6%

Question: `Cc1ccc(C(=O)NCCOc2cccc(C)c2)cc1` was tested. Which Potency did it give?
Answer: inconclusive: 2.82 µM [inhibitor, partial curve, poor fit]

Question: `Clc1ccccc1CN1CCN(CCCc2ccccc2)CC1` was tested. Which Potency did it give?
Answer: inconclusive: 70.8 µM [inhibitor, partial curve]

Question: How did the Potency turn out when `C=CCn1c(NC(=O)c2ccc(Br)o2)c(S(=O)(=O)c2ccccc2)c2nc3ccccc3nc21` was run?
Answer: inconclusive: 28.2 µM [inhibitor, full curve, poor fit]

Question: Which “activity change, negative = inhibition” value does the source give for `CCCCNC(=O)C1(C)CCCCCN1Cc1cccc2c(OC)cc(C(=O)OCC)cc12` (stereo unspecified) here?
Answer: inactive: -12%

Question: Which Potency does the source give for `C=CCn1cnc2c(nnn2-c2ccc(Cl)cc2)c1=O` here?
Answer: inconclusive: 28.2 µM [inhibitor, single point]

Question: How did the “activity change, negative = inhibition” value turn out when `O=C(CSC(=S)N1CCCC1)N/N=C/c1c(O)[nH]c(=S)[nH]c1=O` was run?
Answer: inactive: 0.0732%

Question: How did the Potency turn out when `O=C(O)COc1ccc(NC(=O)c2ccc3c(c2)C(=O)N(Cc2ccccc2)C3=O)cc1` was run?
Answer: inconclusive: 22.4 µM [inhibitor, full curve, poor fit]

Question: Which Potency does the source give for `COc1cc(/C=N/NC(=O)c2cc(-c3c(C)nn(-c4ccccc4)c3C)n[nH]2)ccc1O` here?
Answer: inconclusive: 29.9 µM [inhibitor, single point]

Question: For `O=C(O)COc1ccccc1/C=N/NC(=O)c1cc(-c2ccc(Cl)cc2)nc2ccccc12`, which Potency is on record?
Answer: inconclusive: 22.4 µM [inhibitor, partial curve]

Question: For `O=C(CSc1ccsc1[N+](=O)[O-])N1CCN(c2ccccc2)CC1`, which Potency is on record?
Answer: inconclusive: 22.4 µM [inhibitor, full curve, poor fit]

Question: How did the Potency turn out when `CN(C)c1ccc(Cc2cc3c(O)ccc(O)c3cc(Cc3ccc(N(C)C)cc3)c2=O)cc1` was run?
Answer: active: 12.6 µM

Question: `COc1ccc(C(=O)NC2CC2)cc1OC1CCN(Cc2ccccc2O)CC1` was tested. Which Potency did it give?
Answer: inconclusive: 79.4 µM [inhibitor, single point]

Question: `CCSc1nnc(NC(=O)C2Cc3ccccc3CN2C(=O)c2ccco2)s1` (stereo unspecified) was tested. Which Potency did it give?
Answer: inconclusive: 50.1 µM [inhibitor, partial curve]

Question: `O=C(O)CN1C(=O)C=CC1=O` was tested. Which “activity change, negative = inhibition” value did it give?
Answer: inactive: -13%

Question: Which Potency does the source give for `C=CCn1c(SCc2nc3sc(C(=O)O)c(C)c3c(=O)[nH]2)nnc1-c1ccc(C(C)(C)C)cc1` here?
Answer: inconclusive: 50.1 µM [inhibitor, partial curve]

Question: `CS(=O)(=O)c1nc(-c2ccccc2)cc(C(F)(F)F)n1` was tested. Which Potency did it give?
Answer: inconclusive: 56.2 µM [inhibitor, partial curve, poor fit]

Question: `C=C(CN(C)C)C(=O)c1ccc(C)cc1C` was tested. Which Potency did it give?
Answer: active: 17.8 µM

Question: With `C=CC[n+]1ccc(/C=C2\C=Cc3cc(C)ccc3N2CC)c2ccccc21` as the molecule, how does the Potency read?
Answer: active: 39.8 µM

Question: `Cc1c(N2C(=O)/C(=C/C3CC=CCC3)SC2=S)c(=O)n(-c2ccccc2)n1C` (stereo unspecified) was tested. Which Potency did it give?
Answer: inconclusive: 10 µM [inhibitor, full curve]

Question: With `CC(C)c1ccc(NC2CCCN(C(=O)CC3CCCC3)C2)cc1` (stereo unspecified) as the molecule, how does the “activity change, negative = inhibition” value read?
Answer: inactive: -3.25%

Question: Which “activity change, negative = inhibition” value does the source give for `O=C(CCc1c[nH]c2ccccc12)NC(Cc1c[nH]c2ccccc12)C(=O)O` (stereo unspecified) here?
Answer: inactive: -5.17%

Question: With `O=C(CSc1ncccc1-c1nc2ccccc2[nH]1)NCc1ccco1` as the molecule, how does the Potency read?
Answer: inconclusive: 44.7 µM [inhibitor, partial curve]

Question: For `Cc1ccc(Oc2c(C(N)=O)cc([N+](=O)[O-])cc2[N+](=O)[O-])cc1`, which Potency is on record?
Answer: inconclusive: 50.1 µM [inhibitor, partial curve]

Question: With `O=C(NCc1cccnc1)C1CC(c2ccccc2O)=NO1` (stereo unspecified) as the molecule, how does the “activity change, negative = inhibition” value read?
Answer: inactive: -24.5%

Question: `CCC(C)c1ccc(NC(=S)Nc2ccc(OC)cc2)cc1` (stereo unspecified) was tested. Which Potency did it give?
Answer: inconclusive: 10 µM [inhibitor, partial curve]

Question: How did the Potency turn out when `O=C(O)c1cccc(-n2cccc2C=C2C(=O)c3ccccc3C2=O)c1` was run?
Answer: inconclusive: 25.1 µM [inhibitor, single point]

Question: How did the “activity change, negative = inhibition” value turn out when `O=C(O)c1ccc(N2C(=O)c3cccc4cccc(c34)C2=O)cc1` was run?
Answer: inactive: -13.3%

Question: `COC(=O)c1ccc(NC(=O)C(=O)N2CCN(C(=S)Nc3cccc(C)c3C)CC2)cc1` was tested. Which Potency did it give?
Answer: inconclusive: 25.1 µM [inhibitor, single point]

Question: With `CCOC(=O)c1ccc(NC(=O)CSCc2ccco2)cc1` as the molecule, how does the Potency read?
Answer: inconclusive: 21.2 µM [inhibitor, partial curve]

Question: `CCc1ccccc1NC(=O)c1cc(-c2cccs2)on1` was tested. Which Potency did it give?
Answer: inconclusive: 100 µM [inhibitor, partial curve]

Question: How did the “activity change, negative = inhibition” value turn out when `CC(=O)Nc1ccc(C(=O)OCC(=O)N2CCN(C(=O)c3ccco3)CC2)cc1` was run?
Answer: inactive: -5.6%

Question: `O=[N+]([O-])c1ccc(Sc2ccncn2)c([N+](=O)[O-])c1` was tested. Which Potency did it give?
Answer: inconclusive: 56.2 µM [inhibitor, partial curve]

Question: With `CCC(=O)Nc1ccc(S(=O)(=O)Nc2ncccn2)cc1` as the molecule, how does the “activity change, negative = inhibition” value read?
Answer: inactive: 4.35%

Question: How did the Potency turn out when `Cc1ccccc1OCC(=O)NCC(=O)OCc1ccc(Br)cc1` was run?
Answer: inconclusive: 100 µM [inhibitor, single point]

Question: `CN(C)CCNc1cccc2sc3ccc(O)cc3c(=O)c12` was tested. Which Potency did it give?
Answer: inconclusive: 39.8 µM [inhibitor, single point]

Question: How did the Potency turn out when `C=C1C(=O)OC2C=C(CO)C3OC3C3OC3(C)CC(OC(=O)/C(=C/C)COC(C)=O)C12` (stereo unspecified) was run?
Answer: inconclusive: 17.8 µM [inhibitor, single point]

Question: Which Potency does the source give for `Cc1nc2ccc(NC(=O)c3cc([N+](=O)[O-])cc([N+](=O)[O-])c3Cl)cc2s1` here?
Answer: active: 10 µM

Question: Which Potency does the source give for `COC(=O)c1ccc(NCc2cc(O)ccc2O)cc1` here?
Answer: active: 79.4 µM

Question: Which Potency does the source give for `Cc1ccc(/C=C(\C#N)C(=O)Nc2cccc3ncccc23)o1` here?
Answer: active: 20 µM

Question: How did the Potency turn out when `CCOC(=O)C1=C(COC(=O)/C=C/c2ccco2)NC(=O)NC1C` (stereo unspecified) was run?
Answer: inconclusive: 50.1 µM [inhibitor, partial curve]

Question: With `COc1ccc(Nc2nc(N3CCCC3)c3ccccc3n2)cc1` as the molecule, how does the Potency read?
Answer: inconclusive: 79.4 µM [inhibitor, partial curve]

Question: How did the Potency turn out when `COc1ccc2cc3cc(C(=O)NCc4cccs4)oc3nc2c1` was run?
Answer: active: 39.8 µM

Question: Which Potency does the source give for `O=C(CSc1ccc(-c2ccco2)nn1)c1ccc(F)cc1` here?
Answer: active: 44.7 µM

Question: How did the Potency turn out when `Cc1occc1C(=O)Nc1cccc(/C=C/C(=O)O)c1` was run?
Answer: inconclusive: 50.1 µM [inhibitor, partial curve]

Question: With `COc1ccc(C[C@@H]2OC3(C=CC(=O)C=C3)O[C@H]2Cc2ccc(OC)cc2)cc1` as the molecule, how does the Potency read?
Answer: inconclusive: 31.6 µM [inhibitor, partial curve]

Question: How did the activity change, negative = inhibition turn out when `Cc1cc(C)cc(NC(=O)Cn2nnc(C(=O)NCCc3ccccc3)c2N)c1` was run?
Answer: inactive: -8.54% [at 11.6 µM]

Question: With `COc1cc2nc(N(CCCN(C)C)C(=O)c3ccc(C(=O)c4ccccc4)cc3)sc2cc1OC` as the molecule, how does the Potency read?
Answer: inconclusive: 79.4 µM [inhibitor, partial curve]

Question: How did the Potency turn out when `O=C(O)c1cc2ccccc2c(N=Nc2cccnc2)c1O` was run?
Answer: inconclusive: 14.1 µM [inhibitor, partial curve]

Question: How did the “activity change, negative = inhibition” value turn out when `CCCCCn1c(N)c(-c2nc3ccccc3s2)c2c([N+](=O)[O-])nn(C)c(=O)c21` was run?
Answer: inactive: -14.2%
